One data set has as its target BSA (UniProt P02769). Put plainly: specificity binding assay. The settings on record: letters put together from the description.
The next data set addresses streptavidin (UniProt P22629). In words: specificity binding assay.
For the next data set, the target named is SCAF4 (endogenous) (UniProt O95104). Put plainly: pull-down. The conditions noted are these: HCT116 lysate, protein in an extract.
The target in another data set is SCAF8 (endogenous) (UniProt Q9UPN6). Put plainly: pull-down. The settings on record: HCT116 lysate, protein in an extract.
Another data set deals with WDR5 N225 mutant (UniProt P61964). Put plainly: fluorescence polarization. (In general: Fluorescence polarisation rises when a labelled molecule tumbles more slowly, as on binding a larger partner.)
A further data set addresses WDR5 V268 mutant (UniProt P61964). Put plainly: fluorescence polarization.
Another data set has as its target T1, SCAF4-CID (human) (UniProt O95104).
T1 sequence (looked up): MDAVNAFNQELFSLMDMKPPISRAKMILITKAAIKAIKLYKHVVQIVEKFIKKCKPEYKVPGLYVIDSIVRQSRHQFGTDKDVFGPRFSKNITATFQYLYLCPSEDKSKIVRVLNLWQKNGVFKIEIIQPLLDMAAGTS
Put plainly: SPR. The conditions noted are these: 10 uM, weak or negligible response; residues 1-139.

Sequences of proteins named here, by UniProt entry; tags and fusion partners are left off. A change or cut given only in a name is not applied to a line headed by its entry.
UniProt Q9UPN6: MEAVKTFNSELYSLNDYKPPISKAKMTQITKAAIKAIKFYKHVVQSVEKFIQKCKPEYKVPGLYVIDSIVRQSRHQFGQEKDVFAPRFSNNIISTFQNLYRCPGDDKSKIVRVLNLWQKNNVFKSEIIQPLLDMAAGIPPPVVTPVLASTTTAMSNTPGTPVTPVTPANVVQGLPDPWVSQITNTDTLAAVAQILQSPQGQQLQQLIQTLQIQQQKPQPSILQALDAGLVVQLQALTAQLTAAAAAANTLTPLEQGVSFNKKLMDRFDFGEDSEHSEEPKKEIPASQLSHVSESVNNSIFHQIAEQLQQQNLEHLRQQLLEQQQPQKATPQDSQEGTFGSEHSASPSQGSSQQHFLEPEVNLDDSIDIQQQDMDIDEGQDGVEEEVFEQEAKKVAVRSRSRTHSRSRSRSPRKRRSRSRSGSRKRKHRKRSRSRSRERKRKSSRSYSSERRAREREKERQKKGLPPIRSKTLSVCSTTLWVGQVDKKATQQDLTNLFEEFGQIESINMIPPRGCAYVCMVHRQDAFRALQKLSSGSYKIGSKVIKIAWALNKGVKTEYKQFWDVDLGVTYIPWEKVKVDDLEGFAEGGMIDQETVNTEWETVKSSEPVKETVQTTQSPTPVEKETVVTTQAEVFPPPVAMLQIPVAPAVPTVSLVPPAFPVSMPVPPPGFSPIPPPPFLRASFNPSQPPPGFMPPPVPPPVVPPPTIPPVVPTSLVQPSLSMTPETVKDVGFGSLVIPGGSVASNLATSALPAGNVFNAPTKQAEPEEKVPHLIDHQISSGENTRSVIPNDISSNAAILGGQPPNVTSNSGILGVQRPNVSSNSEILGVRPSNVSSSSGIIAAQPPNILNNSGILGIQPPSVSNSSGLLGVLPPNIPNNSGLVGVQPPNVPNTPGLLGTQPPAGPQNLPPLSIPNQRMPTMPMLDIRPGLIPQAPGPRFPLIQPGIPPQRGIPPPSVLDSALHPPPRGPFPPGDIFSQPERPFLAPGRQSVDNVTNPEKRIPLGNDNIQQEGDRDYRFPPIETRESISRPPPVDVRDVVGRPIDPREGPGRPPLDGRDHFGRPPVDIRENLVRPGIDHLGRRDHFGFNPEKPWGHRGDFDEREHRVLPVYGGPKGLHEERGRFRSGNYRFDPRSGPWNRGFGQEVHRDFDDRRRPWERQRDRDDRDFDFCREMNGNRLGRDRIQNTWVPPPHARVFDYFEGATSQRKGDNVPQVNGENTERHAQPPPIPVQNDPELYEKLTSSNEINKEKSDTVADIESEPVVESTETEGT

Where [1] appears, read: letters put together from the description.

Where two headings read alike, the source gives them in different places. For some assays here: Negatives hold for the conditions tested. For some assays here: Construct, isoform or probe ends are uncertain for at least one entry. For some assays here: The comparison behind a weaker result is the experiment's own reference, which may not be listed here. For some assays here: At least one verdict was read from the data and is not stated in words by the source. For some assays here: Where a protein sequence is shown, tags need not be part of it. For some assays here: Results from cells or extracts need not show a direct contact.

Consider seven sequences from article doi:10.1101/2024.01.09.574928.

On to GGGGTGGGGAG [SRiApt-1 (SCAF4_F3_11nt)], for which the binding result with BSA and in the data set with streptavidin (setting [1]) was “no binding” in each case.

As to ATGACTCCCCACCCCTTTAA [RC of SRiApt-3], the binding result with SCAF4 (endogenous) and with SCAF8 (endogenous) was “no binding” in each case.

Regarding “TTAAAGGGGTGGGGAGTCAT [SRiApt-3 biotinylated]”, the binding result with SCAF4 (endogenous) (setting [1]) and in the data set with SCAF8 (endogenous) (setting [1]) was “binds” each time.

Turning to GGGGGCTGGACCCCTCAACT [WMiApt-1], the values for the binding result in the data set with WDR5 N225 mutant, in the data set with WDR5 V268 mutant and with streptavidin were “binds more weakly”, “binds more weakly” and “no binding”, respectively.

CTGGG: the binding result with SCAF4-CID (human) is given as “binds more weakly”.

As to CTCCCCACCCC [RC of SRiApt-1], the binding result with SCAF4 (endogenous) and with SCAF8 (endogenous) was “no binding” in each case.

For the sequence GGGGTGGGGAG [SRiApt-1 biotinylated], the binding result in the data set with SCAF4 (endogenous) (setting [1]) and in the data set with SCAF8 (endogenous) (setting [1]) was “binds” in each case.
